The target in the assay is Mcl-1/Bim interaction, recombinant human Mcl-1 (171-327) (Homo sapiens, UniProt Q07820). Description: Cell free Mcl-1: Bim Affinity Assay (Mcl-1 HTRF). The assay is classed as binding. To be noted: read-out: Mcl-1 HTRF, cell free Mcl-1:Bim TR-FRET.

Sequences of proteins named here, by UniProt entry; tags and fusion partners are left off. Residues count along the entry.
UniProt Q07820, 171-327 limits assumed: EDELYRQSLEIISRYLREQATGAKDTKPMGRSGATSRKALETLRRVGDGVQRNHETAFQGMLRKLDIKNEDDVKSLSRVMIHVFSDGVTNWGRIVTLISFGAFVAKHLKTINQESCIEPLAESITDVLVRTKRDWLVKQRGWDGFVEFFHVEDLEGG

Molecules are shown by their SMILES. The source holds more than one record for some entries. The other results are left out here. There may be further records. The values listed for one entry appear to be repeats (runs, samples, wells or individuals).

As to `CC(C)C1CCCC[C@@H](O)[C@@H]2CC[C@H]2CN2C[C@@]3(CCCc4cc(Cl)ccc43)COc3ccc(cc32)C(=O)NS1(=O)=O` (single isomer, unassigned), the IC50 is 0.632 nM and 3.49 nM.

The values are drawn from patent US12091425B2 (AMGEN INC., priority 2016, dated 2024).
